Patent US10280229B2 (MEDSHINE DISCOVERY INC., priority 2014, dated 2019)

Assay: general procedure: solution-phase peptide synthesis; HOBt/pyridine (4-nitrophenyl carbonate); HATU/DIEA
Settings: conjugation step

Substance | conjugation yield
(S)-MTMH-Val-Cit-PABO(CO)-MMAE | 30% yield
MTM H-Val-Cit-PABO(CO)-MMAE | 10.4%
